Structures can show the parent of a compound that is named as a salt. The list shows a part of the results. The calls rarely recur for the same compound in another form.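 In K562 cells expressing nanoluciferase-fused kinases, luminescence was recorded at 4 h intervals between 2 and 18 h, normalized as percent of control with DMSO at 100% and a positive control at 0%. A significant (2 sigma) signal drop marks a time point as decreased. The authors' rule for a hit is not shown and takes in more than the number of time points.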
Experiments:
Conditions in all cases: K562; 2-18 h
ROR2 = ROR2 (UniProt Q01974); test: number of time points (of 5) at which kinase-Nluc abundance scored as decreased, DMSO-normalised (count); higher = more persistent destabilization
RPS6KA1 = RPS6KA1 (UniProt Q15418); test: as above
SPHK1 = SPHK1 (UniProt Q9NYA1); test: as above
SRC = SRC (UniProt P12931); test: as above
STK24 = STK24 (UniProt Q9Y6E0); test: as above
STK38 = STK38 (UniProt Q15208); test: as above
SYK = SYK (UniProt P43405); test: as above
TEC = TEC (UniProt P42680); test: as above
TYK2 = TYK2 (UniProt P29597); test: as above
ULK3 = ULK3 (UniProt Q6PHR2); test: as above
YES1 = YES1 (UniProt P07947); test: as above
ZAK = ZAK (UniProt Q9NYL2); test: as above
ZAP70 = ZAP70 (UniProt P43403); test: as above
CDK4 = CDK4 (UniProt P11802); test: number of time points (of 4; 2 h point missing) at which kinase-Nluc abundance scored as decreased, DMSO-normalised (count); higher = more persistent destabilization
CDK7 = CDK7 (UniProt P50613); test: as above
CDK9 = CDK9 (UniProt P50750); test: as above

Amino acid sequences for entries named in this document (tags omitted). A change or cut given only in a name is not applied to a line headed by its entry.
UniProt Q01974, whole entry: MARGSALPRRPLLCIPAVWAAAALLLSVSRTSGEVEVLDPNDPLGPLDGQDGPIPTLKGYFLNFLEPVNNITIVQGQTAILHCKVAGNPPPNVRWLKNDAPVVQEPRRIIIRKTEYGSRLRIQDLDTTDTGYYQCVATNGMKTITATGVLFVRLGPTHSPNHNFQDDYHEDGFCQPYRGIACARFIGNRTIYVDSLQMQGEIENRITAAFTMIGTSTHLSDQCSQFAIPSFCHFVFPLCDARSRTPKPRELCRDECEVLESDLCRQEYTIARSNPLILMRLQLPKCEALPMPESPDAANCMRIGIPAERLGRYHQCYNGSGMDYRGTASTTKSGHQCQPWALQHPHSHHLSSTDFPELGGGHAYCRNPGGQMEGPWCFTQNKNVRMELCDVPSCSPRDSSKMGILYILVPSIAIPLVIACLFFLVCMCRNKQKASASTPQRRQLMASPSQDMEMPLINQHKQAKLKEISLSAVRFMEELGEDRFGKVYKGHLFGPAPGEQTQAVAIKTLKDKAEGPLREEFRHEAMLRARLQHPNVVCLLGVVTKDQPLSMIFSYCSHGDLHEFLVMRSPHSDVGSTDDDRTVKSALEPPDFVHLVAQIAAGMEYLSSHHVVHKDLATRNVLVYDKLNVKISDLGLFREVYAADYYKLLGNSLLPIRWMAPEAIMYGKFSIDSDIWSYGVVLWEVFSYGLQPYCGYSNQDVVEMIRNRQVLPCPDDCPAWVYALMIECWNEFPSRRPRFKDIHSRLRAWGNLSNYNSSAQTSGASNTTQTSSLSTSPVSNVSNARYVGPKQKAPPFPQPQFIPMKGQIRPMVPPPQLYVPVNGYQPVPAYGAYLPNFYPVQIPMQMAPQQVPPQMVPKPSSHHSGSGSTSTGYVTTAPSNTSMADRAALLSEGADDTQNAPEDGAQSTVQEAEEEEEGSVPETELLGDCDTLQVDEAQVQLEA
UniProt Q15418, whole entry: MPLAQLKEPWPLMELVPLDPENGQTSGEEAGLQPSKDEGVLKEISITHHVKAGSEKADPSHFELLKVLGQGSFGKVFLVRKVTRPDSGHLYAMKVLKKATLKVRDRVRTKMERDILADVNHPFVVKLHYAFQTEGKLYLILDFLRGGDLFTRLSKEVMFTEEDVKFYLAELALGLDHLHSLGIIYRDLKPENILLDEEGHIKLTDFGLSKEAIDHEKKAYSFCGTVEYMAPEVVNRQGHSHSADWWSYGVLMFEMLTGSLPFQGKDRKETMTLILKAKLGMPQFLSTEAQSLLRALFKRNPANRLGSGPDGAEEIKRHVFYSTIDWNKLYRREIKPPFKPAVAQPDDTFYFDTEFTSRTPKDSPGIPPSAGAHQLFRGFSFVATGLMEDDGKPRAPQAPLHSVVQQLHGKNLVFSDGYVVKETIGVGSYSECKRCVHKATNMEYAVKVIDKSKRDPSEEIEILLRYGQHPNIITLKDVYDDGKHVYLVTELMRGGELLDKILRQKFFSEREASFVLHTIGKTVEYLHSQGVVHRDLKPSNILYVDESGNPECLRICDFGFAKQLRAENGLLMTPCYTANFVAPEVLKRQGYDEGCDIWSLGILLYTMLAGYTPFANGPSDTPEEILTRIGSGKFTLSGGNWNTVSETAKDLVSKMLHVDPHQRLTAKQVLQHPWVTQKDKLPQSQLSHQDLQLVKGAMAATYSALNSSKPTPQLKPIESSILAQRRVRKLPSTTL
UniProt Q9NYA1, whole entry: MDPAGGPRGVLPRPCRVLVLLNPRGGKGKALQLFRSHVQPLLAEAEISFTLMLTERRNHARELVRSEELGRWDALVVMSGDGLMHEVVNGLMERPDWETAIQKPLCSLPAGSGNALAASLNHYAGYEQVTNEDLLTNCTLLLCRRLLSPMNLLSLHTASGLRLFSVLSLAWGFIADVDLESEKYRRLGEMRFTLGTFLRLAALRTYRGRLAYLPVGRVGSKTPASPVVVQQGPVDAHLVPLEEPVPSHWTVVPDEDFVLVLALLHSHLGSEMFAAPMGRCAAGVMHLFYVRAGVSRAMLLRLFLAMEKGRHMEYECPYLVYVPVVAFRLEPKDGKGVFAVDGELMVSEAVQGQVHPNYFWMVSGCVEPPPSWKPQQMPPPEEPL
UniProt Q9Y6E0: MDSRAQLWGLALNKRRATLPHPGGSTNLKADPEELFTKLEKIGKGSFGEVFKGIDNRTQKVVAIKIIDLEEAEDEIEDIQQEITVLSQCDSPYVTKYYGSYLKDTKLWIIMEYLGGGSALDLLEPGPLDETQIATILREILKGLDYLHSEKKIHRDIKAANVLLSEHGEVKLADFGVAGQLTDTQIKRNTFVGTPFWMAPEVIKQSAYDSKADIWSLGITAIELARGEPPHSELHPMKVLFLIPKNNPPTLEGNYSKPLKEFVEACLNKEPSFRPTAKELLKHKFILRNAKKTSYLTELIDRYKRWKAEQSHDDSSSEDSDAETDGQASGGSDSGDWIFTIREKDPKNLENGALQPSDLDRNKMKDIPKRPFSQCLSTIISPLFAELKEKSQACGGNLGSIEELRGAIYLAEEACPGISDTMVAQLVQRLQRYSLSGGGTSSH
UniProt Q15208: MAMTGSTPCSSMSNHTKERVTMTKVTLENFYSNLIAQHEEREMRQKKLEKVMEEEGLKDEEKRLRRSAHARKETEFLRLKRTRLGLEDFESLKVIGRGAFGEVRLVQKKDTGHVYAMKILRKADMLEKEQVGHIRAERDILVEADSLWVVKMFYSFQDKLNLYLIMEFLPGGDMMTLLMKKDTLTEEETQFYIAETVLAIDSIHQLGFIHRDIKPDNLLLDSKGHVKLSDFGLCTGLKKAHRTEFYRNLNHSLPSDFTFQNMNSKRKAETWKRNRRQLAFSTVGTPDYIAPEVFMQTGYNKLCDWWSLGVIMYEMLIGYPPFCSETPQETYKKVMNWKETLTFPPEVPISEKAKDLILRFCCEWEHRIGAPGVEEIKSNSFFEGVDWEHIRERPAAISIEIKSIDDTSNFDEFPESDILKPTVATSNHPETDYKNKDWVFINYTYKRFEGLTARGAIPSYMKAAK
UniProt P42680: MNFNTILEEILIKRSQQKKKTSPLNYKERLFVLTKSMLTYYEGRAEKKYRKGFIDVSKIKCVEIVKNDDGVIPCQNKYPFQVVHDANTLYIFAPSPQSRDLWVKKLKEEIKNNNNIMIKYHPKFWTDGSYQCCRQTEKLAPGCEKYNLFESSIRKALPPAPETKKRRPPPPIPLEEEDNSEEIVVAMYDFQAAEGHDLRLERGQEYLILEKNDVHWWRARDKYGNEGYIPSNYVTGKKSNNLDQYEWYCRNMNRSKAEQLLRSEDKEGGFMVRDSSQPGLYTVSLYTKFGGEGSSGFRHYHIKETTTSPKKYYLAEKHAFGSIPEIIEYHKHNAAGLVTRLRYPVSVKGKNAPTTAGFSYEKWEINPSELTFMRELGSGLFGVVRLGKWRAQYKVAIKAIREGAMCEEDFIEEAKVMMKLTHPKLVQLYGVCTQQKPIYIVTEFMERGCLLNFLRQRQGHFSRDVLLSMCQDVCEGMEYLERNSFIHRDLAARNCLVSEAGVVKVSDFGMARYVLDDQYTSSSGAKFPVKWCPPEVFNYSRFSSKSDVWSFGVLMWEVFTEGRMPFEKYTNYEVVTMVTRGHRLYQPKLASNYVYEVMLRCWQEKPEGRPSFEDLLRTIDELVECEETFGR
UniProt P29597: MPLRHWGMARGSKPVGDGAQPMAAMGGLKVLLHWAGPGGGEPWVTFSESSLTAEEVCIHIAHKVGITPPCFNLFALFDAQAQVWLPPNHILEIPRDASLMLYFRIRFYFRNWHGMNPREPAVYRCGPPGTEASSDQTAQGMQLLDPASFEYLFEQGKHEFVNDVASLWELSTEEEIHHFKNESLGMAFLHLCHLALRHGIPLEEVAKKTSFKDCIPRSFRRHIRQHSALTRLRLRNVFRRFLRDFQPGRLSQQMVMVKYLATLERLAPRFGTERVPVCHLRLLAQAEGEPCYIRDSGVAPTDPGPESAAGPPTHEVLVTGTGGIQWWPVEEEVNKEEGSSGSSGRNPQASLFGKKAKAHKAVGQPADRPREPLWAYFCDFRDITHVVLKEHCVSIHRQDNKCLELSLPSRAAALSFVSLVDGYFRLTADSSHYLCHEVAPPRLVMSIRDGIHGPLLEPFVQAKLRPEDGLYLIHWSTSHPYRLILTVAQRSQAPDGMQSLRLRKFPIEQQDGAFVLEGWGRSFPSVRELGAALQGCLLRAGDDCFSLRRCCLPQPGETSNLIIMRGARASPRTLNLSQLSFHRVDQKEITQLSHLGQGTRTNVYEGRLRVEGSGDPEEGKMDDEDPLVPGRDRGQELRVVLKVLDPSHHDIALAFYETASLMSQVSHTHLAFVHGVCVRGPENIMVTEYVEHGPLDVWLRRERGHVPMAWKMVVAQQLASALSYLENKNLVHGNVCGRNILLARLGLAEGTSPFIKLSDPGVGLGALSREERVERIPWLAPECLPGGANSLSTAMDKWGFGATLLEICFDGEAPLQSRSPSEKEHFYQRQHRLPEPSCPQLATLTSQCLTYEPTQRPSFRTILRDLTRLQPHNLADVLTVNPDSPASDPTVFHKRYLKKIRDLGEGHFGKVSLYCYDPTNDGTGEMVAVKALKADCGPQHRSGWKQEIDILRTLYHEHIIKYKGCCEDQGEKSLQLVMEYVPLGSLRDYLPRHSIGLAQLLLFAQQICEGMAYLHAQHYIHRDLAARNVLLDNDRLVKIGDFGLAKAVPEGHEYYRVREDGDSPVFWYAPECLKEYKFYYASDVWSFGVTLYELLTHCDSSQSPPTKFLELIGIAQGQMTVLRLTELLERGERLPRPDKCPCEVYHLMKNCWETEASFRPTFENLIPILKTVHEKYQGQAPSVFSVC
UniProt Q6PHR2: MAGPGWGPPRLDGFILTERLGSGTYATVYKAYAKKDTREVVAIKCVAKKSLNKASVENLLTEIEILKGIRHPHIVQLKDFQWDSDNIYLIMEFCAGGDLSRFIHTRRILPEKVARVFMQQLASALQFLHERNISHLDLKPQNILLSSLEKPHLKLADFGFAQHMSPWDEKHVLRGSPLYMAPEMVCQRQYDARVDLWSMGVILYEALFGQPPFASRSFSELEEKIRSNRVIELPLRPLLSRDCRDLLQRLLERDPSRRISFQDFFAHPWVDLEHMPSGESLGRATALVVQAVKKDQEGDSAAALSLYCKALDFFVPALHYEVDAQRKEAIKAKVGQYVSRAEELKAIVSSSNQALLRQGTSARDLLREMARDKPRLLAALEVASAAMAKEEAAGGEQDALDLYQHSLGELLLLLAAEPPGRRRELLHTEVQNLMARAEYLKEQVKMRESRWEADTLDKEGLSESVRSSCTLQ
UniProt P43403: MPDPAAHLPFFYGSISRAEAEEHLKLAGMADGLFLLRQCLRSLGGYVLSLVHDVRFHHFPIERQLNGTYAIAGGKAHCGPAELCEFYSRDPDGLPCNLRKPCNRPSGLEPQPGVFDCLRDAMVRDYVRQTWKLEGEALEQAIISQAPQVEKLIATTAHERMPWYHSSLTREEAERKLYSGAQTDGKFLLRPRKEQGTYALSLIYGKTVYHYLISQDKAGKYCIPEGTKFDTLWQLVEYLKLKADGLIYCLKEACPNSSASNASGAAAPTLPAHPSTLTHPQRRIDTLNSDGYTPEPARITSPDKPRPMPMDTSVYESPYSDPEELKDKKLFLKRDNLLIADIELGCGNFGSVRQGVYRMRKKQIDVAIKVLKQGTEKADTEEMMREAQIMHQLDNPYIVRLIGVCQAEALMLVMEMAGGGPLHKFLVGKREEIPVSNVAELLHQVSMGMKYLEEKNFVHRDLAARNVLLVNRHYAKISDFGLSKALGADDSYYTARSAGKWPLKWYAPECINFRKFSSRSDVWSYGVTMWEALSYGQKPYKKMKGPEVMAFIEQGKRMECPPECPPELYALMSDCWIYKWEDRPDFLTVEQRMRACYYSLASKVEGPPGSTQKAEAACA
UniProt P50613: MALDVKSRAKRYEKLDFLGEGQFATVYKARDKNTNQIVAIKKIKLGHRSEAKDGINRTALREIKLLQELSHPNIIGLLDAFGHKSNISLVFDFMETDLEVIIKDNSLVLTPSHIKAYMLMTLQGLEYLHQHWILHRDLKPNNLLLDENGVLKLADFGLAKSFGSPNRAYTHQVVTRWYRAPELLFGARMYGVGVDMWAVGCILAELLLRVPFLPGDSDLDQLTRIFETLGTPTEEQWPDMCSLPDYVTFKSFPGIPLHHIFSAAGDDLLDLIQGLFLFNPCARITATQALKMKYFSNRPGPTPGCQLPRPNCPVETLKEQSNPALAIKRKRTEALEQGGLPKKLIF
UniProt P50750, whole entry: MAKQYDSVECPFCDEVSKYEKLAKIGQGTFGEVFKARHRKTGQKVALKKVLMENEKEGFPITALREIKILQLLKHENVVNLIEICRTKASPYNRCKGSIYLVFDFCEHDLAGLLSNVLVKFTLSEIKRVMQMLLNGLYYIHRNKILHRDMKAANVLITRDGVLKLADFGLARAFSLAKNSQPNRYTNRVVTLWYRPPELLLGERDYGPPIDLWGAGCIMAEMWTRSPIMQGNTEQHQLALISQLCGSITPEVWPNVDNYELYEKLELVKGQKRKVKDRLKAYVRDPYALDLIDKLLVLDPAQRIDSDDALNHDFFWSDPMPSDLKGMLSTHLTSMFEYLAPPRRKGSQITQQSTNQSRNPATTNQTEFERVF

Row | SMILES | number of time points (ROR2) | number of time points (RPS6KA1) | number of time points (SPHK1) | number of time points (SRC) | number of time points (STK24) | number of time points (STK38) | number of time points (SYK) | number of time points (TEC) | number of time points (TYK2) | number of time points (ULK3) | number of time points (YES1) | number of time points (ZAK) | number of time points (ZAP70) | number of time points (CDK4) | number of time points (CDK7) | number of time points (CDK9)
1 | Fc1ccc(Cl)cc1-c1nc(Nc2ccncc2)c2nccnc2n1 (10 µM) | 0 | 0 | 0 | 0 | 0 | 0 | 0 | 0 | 0 | 0 | 0 | 0 | 0 | 0 | 0 | 0
2 | COCCOc1cnc2ccn([C@H](C)c3nnc4c(F)cc(-c5cnn(C)c5)cn34)c(=O)c2c1 (10 µM) | 0 | 0 | 0 | 0 | 0 | 0 | 0 | 0 | 0 | 0 | 0 | 0 | 0 | 0 | 0 | 0
3 | N#Cc1cc(N2CCC(C(=O)N3N=CC[C@H]3c3cc(F)cc(F)c3)CC2)ncn1 (10 µM) | 0 | 0 | 0 | 0 | 0 | 0 | 0 | 0 | 0 | 0 | 0 | 0 | 0 | 0 | 0 | 0
4 | CC(C)(Oc1ccc(Cl)cc1)C(=O)Nc1ccc(OCc2ccc(C#N)cc2)cc1 [AMPK activator 4] (10 µM) | 0 | 0 | 1 | 0 | 0 | 0 | 0 | 0 | 0 | 0 | 0 | 0 | 0 | 0 | 0 | 0
5 | CN1CCN(Cc2ccc(-c3cn(C4CCC(O)CC4)c4nc(NCCC5CC5)ncc34)cc2)CC1 (stereo not drawn) (2.5 µM) | 0 | 0 | 0 | 0 | 0 | 0 | 0 | 0 | 3 | 2 | 0 | 0 | 0 | 0 | 1 | 0
6 | Cc1cnc(Cl)nc1-c1ccc(N(Cc2ccc(CNC(=O)C(F)F)cc2)C(=O)c2ccc(O)cc2O)cc1 (10 µM) | 0 | 0 | 0 | 0 | 0 | 0 | 0 | 0 | 0 | 0 | 0 | 0 | 0 | 0 | 0 | 0
7 | CNCc1cc(Oc2ccc3c(ccn3C(=O)Nc3cc(C(F)(F)F)n(C)n3)c2)ncn1 [Acrizanib] (10 µM) | 0 | 0 | 0 | 0 | 0 | 0 | 0 | 0 | 0 | 0 | 0 | 0 | 0 | 0 | 1 | 0
8 | NC(=O)c1sc2c([N+](=O)[O-])cc(C(F)(F)F)cc2[n+]1[O-] [Cyclapolin 9] (10 µM) | 0 | 0 | 0 | 0 | 0 | 0 | 0 | 0 | 0 | 0 | 0 | 0 | 0 | 0 | 0 | 0
9 | CN1C(=O)[C@@H](NC(=O)c2cc(Cc3ccccc3)on2)COc2ccccc21 (10 µM) | 0 | 0 | 0 | 0 | 0 | 0 | 0 | 0 | 0 | 0 | 0 | 0 | 0 | 0 | 0 | 0
10 | C=CC(=O)N1CCC(c2ccc(C(N)=O)c(-c3ccc(Oc4ccccc4)cc3)n2)CC1 [Orelabrutinib] (2.5 µM) | 0 | 0 | 0 | 0 | 0 | 0 | 0 | 0 | 0 | 0 | 0 | 0 | 0 | 0 | 0 | 0
11 | CNC(=O)CN1CCC(Oc2cc3c(Nc4cccc(Cl)c4F)ncnc3cc2OC)CC1 [Sapitinib] (10 µM) | 0 | 0 | 0 | 0 | 0 | 0 | 0 | 0 | 0 | 0 | 0 | 0 | 0 | 0 | 1 | 0
12 | CN1CCC(Nc2ccc(C(=O)Nc3cc(-c4ccc5c(c4)OCO5)[nH]n3)cc2)CC1 (10 µM) | 0 | 0 | 0 | 0 | 0 | 0 | 0 | 0 | 0 | 0 | 0 | 0 | 0 | 0 | 0 | 0
13 | Cc1cncc2cccc(S(=O)(=O)N3CCCNC[C@@H]3C)c12 [H-1152 (dihydrochloride)] (10 µM) | 0 | 0 | 0 | 0 | 0 | 0 | 0 | 0 | 0 | 0 | 0 | 0 | 0 | 0 | 0 | 0
14 | CC(C)Cn1ncc2cc(Oc3ccc(F)cc3F)c(C(=O)NCCN(C)C)cc21 [p38α inhibitor 1] (10 µM) | 0 | 0 | 0 | 0 | 0 | 0 | 0 | 0 | 0 | 0 | 0 | 0 | 0 | 0 | 0 | 0
15 | CCn1c(N)c(C(=O)NC)c(=O)c2ccc(C#CC(C)(O)COC)nc21 (stereo not drawn) (10 µM) | 0 | 0 | 0 | 0 | 0 | 0 | 0 | 0 | 0 | 0 | 0 | 0 | 0 | 0 | 0 | 0
16 | CC(C)n1cnc2c(Nc3cccc(Cl)c3)nc(N[C@H]3CCCC[C@@H]3N)nc21 (2.5 µM) | 0 | 0 | 0 | 0 | 0 | 0 | 0 | 0 | 0 | 0 | 0 | 0 | 0 | 0 | 0 | 0
17 | N#CC(=C(/N)Sc1ccccc1N)/C(C#N)=C(\N)Sc1ccccc1N (10 µM) | 0 | 0 | 0 | 0 | 0 | 0 | 0 | 0 | 0 | 5 | 0 | 0 | 0 | 0 | 0 | 0
18 | Oc1ccc(-c2cnc3ccc(NCc4ccco4)nn23)cc1 [IRAK inhibitor 2] (2.5 µM) | 0 | 0 | 0 | 0 | 0 | 0 | 0 | 0 | 0 | 0 | 0 | 0 | 0 | 0 | 0 | 0
19 | O=C1OC(COc2ccccc2[N+](=O)[O-])CC1Cc1ccccc1 (stereo not drawn) (10 µM) | 0 | 0 | 0 | 0 | 0 | 0 | 0 | 0 | 0 | 0 | 0 | 0 | 0 | 0 | 0 | 0
20 | CN(C)CCOc1cc(-c2cn[nH]c2)ccc1NC(=O)C1COc2ccccc2O1 (stereo not drawn) (10 µM) | 0 | 0 | 0 | 0 | 0 | 0 | 0 | 0 | 0 | 0 | 0 | 0 | 0 | 0 | 0 | 0
21 | COc1cc2nc(-c3cc(F)ccc3O)nc(N[C@@H]3CNC[C@H]3C(C)(C)O)c2cc1OC (2.5 µM) | 0 | 0 | 0 | 0 | 0 | 0 | 0 | 0 | 0 | 0 | 0 | 0 | 0 | 0 | 0 | 0
22 | CN(C)c1cc[n+](Cc2ccc(OCCOc3ccc(C[n+]4ccc(N(C)C)cc4)cc3)cc2)cc1 (10 µM) | 0 | 0 | 0 | 0 | 0 | 0 | 0 | 0 | 0 | 0 | 0 | 0 | 0 | 0 | 0 | 0
23 | Cn1cc(C2=C(c3ccc(Cl)cc3Cl)C(=O)NC2=O)c2ccccc21 (10 µM) | 0 | 0 | 0 | 0 | 0 | 0 | 0 | 0 | 0 | 0 | 0 | 0 | 0 | 0 | 0 | 0
24 | CNCCOc1ccccc1C1(Nc2nccn(-c3cc(C(=O)NC4CC4)cc(F)c3C)c2=O)CC1 (10 µM) | 0 | 0 | 0 | 0 | 0 | 0 | 0 | 0 | 0 | 0 | 0 | 0 | 0 | 0 | 0 | 0
25 | NCCNS(=O)(=O)c1ccc(Cl)c2ccncc12 [CKI-7 (free base)] (10 µM) | 0 | 0 | 0 | 0 | 0 | 0 | 0 | 0 | 0 | 0 | 0 | 0 | 0 | 0 | 0 | 0
26 | O=C(O)c1c[nH]c2cc(Cl)c(-c3ccc(C4(O)CCC4)cc3)cc12 (10 µM) | 0 | 0 | 0 | 0 | 0 | 0 | 0 | 0 | 0 | 0 | 0 | 0 | 0 | 0 | 0 | 0
27 | Nc1ccc(Sc2nc3ccccc3s2)c(Cl)c1 [KRAS inhibitor-9] (10 µM) | 0 | 0 | 0 | 0 | 0 | 0 | 0 | 0 | 0 | 0 | 0 | 0 | 0 | 0 | 0 | 0
28 | CC(=O)O/N=C1/C(c2c(O)[nH]c3cc(Br)ccc23)=Nc2ccccc21 [BIO-acetoxime] (10 µM) | 0 | 0 | 0 | 0 | 0 | 0 | 0 | 0 | 0 | 0 | 0 | 0 | 0 | 0 | 0 | 0

Reformatted as comma-separated lines: 2 of the compounds above.
Row,SMILES,number of time points (ROR2),number of time points (RPS6KA1),number of time points (SPHK1),number of time points (SRC),number of time points (STK24),number of time points (STK38),number of time points (SYK),number of time points (TEC),number of time points (TYK2),number of time points (ULK3),number of time points (YES1),number of time points (ZAK),number of time points (ZAP70),number of time points (CDK4),number of time points (CDK7),number of time points (CDK9)
4,CC(C)(Oc1ccc(Cl)cc1)C(=O)Nc1ccc(OCc2ccc(C#N)cc2)cc1 [AMPK activator 4] (10 µM),0,0,1,0,0,0,0,0,0,0,0,0,0,0,0,0
8,NC(=O)c1sc2c([N+](=O)[O-])cc(C(F)(F)F)cc2[n+]1[O-] [Cyclapolin 9] (10 µM),0,0,0,0,0,0,0,0,0,0,0,0,0,0,0,0

From the supplement of paper PMC12823440, “Inhibitors supercharge kinase turnover through native proteolytic circuits” (Nature, 2025)
